Earlier results as cited in patent US5756145A, “Durable, Resilient and effective antimicrobial coating for medical devices and method of coating therefor” (priority 1995, dated 1998).

Test system: bacterial and fungal organisms
Settings: general statement; cited from earlier work

Compound: CCCCCCCCCCCCCCCC[n+]1ccccc1 [Cetylpyridinium Chloride, 1-Hexadecylpridinium chloride]
- spectrum of antimicrobial activity: activity against gram-positive bacteria and Candida
